Data as given in PubChem BioAssay AID1259308 (NCATS, 2017).
Assay: 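Genes whose loss raises luciferase production in HEK293 cells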 (primary screen). Cell system: human HEK293 embryonic kidney cells stably expressing firefly luciferase (HEK-CMV-Luc2-Hygro). Reagent: single siRNA against human genes, 0.8 pmol siRNA per well. Time to read-out: 72 h. Measured: 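Reporter luminescence and viable-cell signal on separate replicate plates, given as percent of non-targeting control and median/MAD z-scores, plus per-cell luciferase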. Direction: total luciferase, z-score and total luciferase, % of control: higher = more reporter protein produced. Call rule: 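An siRNA counts as active if its total luciferase robust z-score exceeds 3; genes with two or more such siRNAs out of three were retested with fresh siRNAs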. Meaning of the calls: active = raised luciferase; inactive = no rise.
In all, the deposit lists about 59,000 reagents; below is a random part of them. Of all reagents, about 1,510 (2.6%) got an active call. 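Calls use total luciferase alone and ignore viability, so some active siRNAs may act by altering cell number.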 Unmarked entries are inactive. Reagents against one gene are numbered here. Further read-outs or replicates are left out here.

GPR84 (GeneID 53831) #1 → total luciferase, z-score = 0.306; total luciferase, % of control = 88
GPR84 (GeneID 53831) #2 → total luciferase, z-score = 2.33; total luciferase, % of control = 128
GPR84 (GeneID 53831) #3 → total luciferase, z-score = -0.353; total luciferase, % of control = 74.9
CLMB (GeneID 404550) #1 → total luciferase, z-score = -1.08; total luciferase, % of control = 60.3
CLMB (GeneID 404550) #2 → total luciferase, z-score = -0.59; total luciferase, % of control = 70.1
CLMB (GeneID 404550) #3 → total luciferase, z-score = 0.214; total luciferase, % of control = 86.1
NARS2 (GeneID 79731) #1 → total luciferase, z-score = 1.41; total luciferase, % of control = 110
NARS2 (GeneID 79731) #2 → total luciferase, z-score = -1.13; total luciferase, % of control = 59.4
NARS2 (GeneID 79731) #3 → total luciferase, z-score = 3.28 (active); total luciferase, % of control = 147
AHR (GeneID 196) #1 → total luciferase, z-score = -0.218; total luciferase, % of control = 77.5
AHR (GeneID 196) #2 → total luciferase, z-score = 3.33 (active); total luciferase, % of control = 148
AHR (GeneID 196) #3 → total luciferase, z-score = 0.275; total luciferase, % of control = 87.4
HCCS (GeneID 3052) #1 → total luciferase, z-score = -0.172; total luciferase, % of control = 78.5
HCCS (GeneID 3052) #2 → total luciferase, z-score = -1.13; total luciferase, % of control = 59.5
HCCS (GeneID 3052) #3 → total luciferase, z-score = -0.715; total luciferase, % of control = 67.7
E2F4 (GeneID 1874) #1 → total luciferase, z-score = 0.0241; total luciferase, % of control = 82.4
E2F4 (GeneID 1874) #2 → total luciferase, z-score = 1.14; total luciferase, % of control = 105
E2F4 (GeneID 1874) #3 → total luciferase, z-score = 0.303; total luciferase, % of control = 87.9
ALCAM (GeneID 214) #1 → total luciferase, z-score = -1.27; total luciferase, % of control = 56.7
ALCAM (GeneID 214) #2 → total luciferase, z-score = -1.69; total luciferase, % of control = 48.2
ALCAM (GeneID 214) #3 → total luciferase, z-score = -0.626; total luciferase, % of control = 69.4

Called active, among the entries above:
NARS2 (GeneID 79731) #3 → total luciferase, z-score = 3.28 (active); total luciferase, % of control = 147
AHR (GeneID 196) #2 → total luciferase, z-score = 3.33 (active); total luciferase, % of control = 148
